The list shows a part of the results.
Tests used:
Test in all cases: glycan array binding signal (z-score within array); higher = stronger binding
Details in all cases: glycan notation: IUPAC condensed, linker removed
[1] = target: GalNAc3S(b1-4)[Fuc(a1-3)]GlcNAc
Method in brief: (§1)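 The binding signal is a Z-score computed within each array. Data were drawn from 3228 arrays in the Consortium for Functional Glycomics database, restricted to those with a known protein sequence. Scores were averaged over arrays of the same protein sequence at different concentrations or buffers, and over linkers, and negative values can be taken as non-binding.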

GalNAc4S6S(b1-4)GlcNAc = target: GalNAc4S6S(b1-4)GlcNAc
Method in brief: as §1

GalNAc6S(b1-4)GlcNAc = target: GalNAc6S(b1-4)GlcNAc
Method in brief: as §1

Glc(a1-4)Glc = target: Glc(a1-4)Glc
Method in brief: as §1

[2] = target: Glc(a1-4)Glc(a1-4)Glc(a1-4)Glc
Method in brief: as §1

Glc(a1-6)Glc(a1-6)Glc = target: Glc(a1-6)Glc(a1-6)Glc
Method in brief: as §1

[3] = target: Glc(a1-6)Glc(a1-6)Glc(a1-6)Glc
Method in brief: as §1

Glc(b1-4)Glc = target: Glc(b1-4)Glc
Method in brief: as §1

Glc(b1-6)Glc = target: Glc(b1-6)Glc
Method in brief: as §1

GlcA(b1-3)Gal = target: GlcA(b1-3)Gal
Method in brief: as §1

GlcA(b1-3)GlcNAc = target: GlcA(b1-3)GlcNAc
Method in brief: as §1

GlcA(b1-6)Gal = target: GlcA(b1-6)Gal
Method in brief: as §1

[4] = target: GlcA3S(b1-3)Gal(b1-4)GlcNAc(b1-2)Man
Method in brief: as §1

[5] = target: GlcA3S(b1-3)Gal(b1-4)GlcNAc(b1-3)Gal(b1-4)Glc
Method in brief: as §1

[6] = target: GlcNAc(a1-3)Gal(b1-4)GlcNAc
Method in brief: as §1

[7] = target: GlcNAc(a1-4)Gal(b1-3)GlcNAc
Method in brief: as §1

[8] = target: GlcNAc(a1-4)Gal(b1-4)GalNAc
Method in brief: as §1

[9] = target: GlcNAc(a1-4)Gal(b1-4)GlcNAc
Method in brief: as §1

[10] = target: GlcNAc(a1-4)Gal(b1-4)GlcNAc(b1-3)Gal(b1-4)Glc
Method in brief: as §1

[11] = target: GlcNAc(a1-4)Gal(b1-4)GlcNAc(b1-3)Gal(b1-4)GlcNAc
Method in brief: as §1

[12] = target: GlcNAc(a1-4)Gal(b1-4)GlcNAc(b1-3)Gal(b1-4)GlcNAc(b1-3)Gal(b1-4)GlcNAc
Method in brief: as §1

[13] = target: GlcNAc(a1-4)Gal(b1-4)GlcNAc(b1-3)Gal(b1-4)[Fuc(a1-3)]GlcNAc(b1-3)Gal(b1-4)[Fuc(a1-3)]GlcNAc
Method in brief: as §1

[14] = target: GlcNAc(a1-6)Gal(b1-4)GlcNAc
Method in brief: as §1

[15] = target: GlcNAc(b1-2)Gal(b1-3)GalNAc
Method in brief: as §1

[16] = target: GlcNAc(b1-2)Man(a1-3)[GlcNAc(b1-2)Man(a1-6)]Man(b1-4)GlcNAc(b1-4)GlcNAc
Method in brief: as §1

[17] = target: GlcNAc(b1-2)Man(a1-3)[GlcNAc(b1-2)Man(a1-6)]Man(b1-4)GlcNAc(b1-4)[Fuc(a1-6)]GlcNAc
Method in brief: as §1

[18] = target: GlcNAc(b1-2)Man(a1-3)[GlcNAc(b1-4)][GlcNAc(b1-2)Man(a1-6)]Man(b1-4)GlcNAc(b1-4)GlcNAc
Method in brief: as §1

[19] = target: GlcNAc(b1-2)Man(a1-3)[GlcNAc(b1-4)][GlcNAc(b1-2)Man(a1-6)]Man(b1-4)GlcNAc(b1-4)[Fuc(a1-6)]GlcNAc
Method in brief: as §1

[20] = target: GlcNAc(b1-2)[GlcNAc(b1-4)]Man(a1-3)[GlcNAc(b1-2)Man(a1-6)]Man(b1-4)GlcNAc(b1-4)GlcNAc
Method in brief: as §1

[21] = target: GlcNAc(b1-2)[GlcNAc(b1-4)]Man(a1-3)[GlcNAc(b1-4)][GlcNAc(b1-2)Man(a1-6)]Man(b1-4)GlcNAc(b1-4)GlcNAc
Method in brief: as §1

[22] = target: GlcNAc(b1-2)[GlcNAc(b1-4)]Man(a1-3)[GlcNAc(b1-4)][GlcNAc(b1-2)[GlcNAc(b1-6)]Man(a1-6)]Man(b1-4)GlcNAc(b1-4)GlcNAc
Method in brief: as §1

[23] = target: GlcNAc(b1-2)[GlcNAc(b1-4)]Man(a1-3)[GlcNAc(b1-4)][GlcNAc(b1-2)[GlcNAc(b1-6)]Man(a1-6)]Man(b1-4)GlcNAc(b1-4)[Fuc(a1-6)]GlcNAc
Method in brief: as §1

[24] = target: GlcNAc(b1-2)[GlcNAc(b1-6)]Man(a1-6)[GlcNAc(b1-2)Man(a1-3)]Man(b1-4)GlcNAc(b1-4)GlcNAc
Method in brief: as §1

[25] = target: GlcNAc(b1-2)[GlcNAc(b1-6)]Man(a1-6)[GlcNAc(b1-2)Man(a1-3)]Man(b1-4)GlcNAc(b1-4)[Fuc(a1-6)]GlcNAc
Method in brief: as §1

[26] = target: GlcNAc(b1-2)[GlcNAc(b1-6)]Man(a1-6)[GlcNAc(b1-4)][GlcNAc(b1-2)Man(a1-3)]Man(b1-4)GlcNAc(b1-4)GlcNAc
Method in brief: as §1

GlcNAc(b1-3)Fuc = target: GlcNAc(b1-3)Fuc
Method in brief: as §1

GlcNAc(b1-3)Gal = target: GlcNAc(b1-3)Gal
Method in brief: as §1

[27] = target: GlcNAc(b1-3)Gal(b1-3)GalNAc
Method in brief: as §1

B1: B3GalT2 (Rattus norvegicus) (protein)
chain: LMLQWRRRHCCFAKMSWNAKRSLFRTHLMGVLSLVFLFAMFLFFNHHDWLPGRPGFKENPVTYTFRGFRSTKTETNQSSLRNIWKEVVPQTLRPQTATNSNNTELSPQGVTGLENTLSANGSIYNEKGTGHPNSYHFKYIINEPEKCQEKSPFLILLIAAEPGQIEARRAIRQTWGNETLAPGIQITRIFLLGISIKLNGYLQHAIQEESIQYHDIIQQEYLDTYYNLTIKTLMGMNWVATYCPHTPYVMKTDSDMFVNTEYLIHKLLKPDLPPRHNYFTGYLMRGYAPNRNKDSKWYMPPDLYPSERYPVFCSGTGYVFSGDLAEKIFKVSLGIRRLHLEDVYVGICLAKLRVDPVPPPNEFVFNHWRVSYSSCKYSHLITSHQFQPSELIKYWNHLQQNKHNACVNAAKEKAGRYRHRKLH
With B1 the “glycan array binding signal (z-score)” value [1] was 0.413, the “glycan array binding signal (z-score)” value (GalNAc4S6S(b1-4)GlcNAc) was 1.11 and the “glycan array binding signal (z-score)” value (GalNAc6S(b1-4)GlcNAc) was -0.143. For the same binder, the “glycan array binding signal (z-score)” value (Glc(a1-4)Glc) was -0.621, the “glycan array binding signal (z-score)” value [2] was -0.478 and the “glycan array binding signal (z-score)” value (Glc(a1-6)Glc(a1-6)Glc) was -0.764. For the same binder, the “glycan array binding signal (z-score)” value [3] was -0.622, the “glycan array binding signal (z-score)” value (Glc(b1-4)Glc) was -0.037 and the “glycan array binding signal (z-score)” value (Glc(b1-6)Glc) was -0.792. The “glycan array binding signal (z-score)” value (GlcA(b1-3)Gal) was -0.382, the “glycan array binding signal (z-score)” value (GlcA(b1-3)GlcNAc) was -0.352 and the “glycan array binding signal (z-score)” value (GlcA(b1-6)Gal) was -0.081. The “glycan array binding signal (z-score)” value [4] was 0.326, the “glycan array binding signal (z-score)” value [5] was 0.751 and the “glycan array binding signal (z-score)” value [6] was 0.555. The “glycan array binding signal (z-score)” value [7] was -0.143, the “glycan array binding signal (z-score)” value [8] was -0.2 and the “glycan array binding signal (z-score)” value [9] was 0.611. For the same binder, the “glycan array binding signal (z-score)” value [10] was -0.563, the “glycan array binding signal (z-score)” value [11] was -0.113 and the “glycan array binding signal (z-score)” value [12] was -1.03. For the same binder, the “glycan array binding signal (z-score)” value [13] was -0.88, the “glycan array binding signal (z-score)” value [14] was 0.777 and the “glycan array binding signal (z-score)” value [15] was 0.898. The “glycan array binding signal (z-score)” value [16] was -0.723, the “glycan array binding signal (z-score)” value [17] was -0.779 and the “glycan array binding signal (z-score)” value [18] was -0.007. The “glycan array binding signal (z-score)” value [19] was -0.485, the “glycan array binding signal (z-score)” value [20] was -0.856 and the “glycan array binding signal (z-score)” value [21] was -0.855. The “glycan array binding signal (z-score)” value [22] was -0.56, the “glycan array binding signal (z-score)” value [23] was -1.02 and the “glycan array binding signal (z-score)” value [24] was -0.933. For the same binder, the “glycan array binding signal (z-score)” value [25] was -0.633, the “glycan array binding signal (z-score)” value [26] was -0.866 and the “glycan array binding signal (z-score)” value (GlcNAc(b1-3)Fuc) was -0.242. For the same binder, the “glycan array binding signal (z-score)” value (GlcNAc(b1-3)Gal) was -0.436 and the “glycan array binding signal (z-score)” value [27] was -0.901.
